Reference: the supplement of paper PMC4604168 (melanoma cell lines)
This is one part of the list. Single values are uncertain, as repeats are few or missing.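 Imaging used 1,536-well plates; nuclei positive for cleaved PARP by antibody were divided by total DNA-stained nuclei to yield the apoptosis fraction. Doses for screening kept most cells viable, and cell lines differ markedly in resting and induced cleaved-PARP levels.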

The compounds below were run on COLO829 (assay: cleaved PARP positive nuclei fraction relative to DMSO control; melanoma cells; higher = more apoptosis). Settings: library dose: low library concentration; 72 h.

Compound	cleaved PARP positive nuclei fraction
Cc1ccc(Nc2nccc(N(C)c3ccc4c(C)n(C)nc4c3)n2)cc1S(N)(=O)=O [Pazopanib] + C#Cc1cccc(Nc2ncnc3cc(OCCOC)c(OCCOC)cc23)c1 [erlotinib] (first compound 0.4 µM, partner dose 0.8 µM)	69.2%
CCCCCCCCCCCCCCCCCCOP(=O)([O-])OC1CC[N+](C)(C)CC1 [Perifosine] + C=C(c1ccc(C(=O)O)cc1)c1cc2c(cc1C)C(C)(C)CCC2(C)C [Bexarotene] (first compound 0.4 µM, partner dose 2 µM)	164%
O=c1[nH]nc(Sc2ncc([N+](=O)[O-])s2)n1-c1ccc2c(c1)OCCO2 + Cc1cc(Nc2cc(N3CCN(C)CC3)nc(/C=C/c3ccccc3)n2)n[nH]1 [ENMD2076] (first compound 0.2 µM, partner dose 0.04 µM)	86.6%
CCCCCCCCCCCCCCCCCCOP(=O)([O-])OC1CC[N+](C)(C)CC1 [Perifosine] + Clc1ccc(Nc2nnc(Cc3ccncc3)c3ccccc23)cc1 [vatalanib] (first compound 0.4 µM, partner dose 2 µM)	92%
Cc1cn(-c2cc(NC(=O)c3ccc(C)c(Nc4nccc(-c5cccnc5)n4)c3)cc(C(F)(F)F)c2)cn1 [nilotinib] + Cn1nnc2c(C(N)=O)ncn2c1=O [temozolomide] (first compound 0.2 µM, partner dose 2 µM)	148%

Each compound was assayed on G361 in the same assay as above. Settings: library dose: low library concentration; 72 h.

Compound	cleaved PARP positive nuclei fraction
CC[C@]1(O)C[C@H]2CN(CCc3c([nH]c4ccccc34)[C@@](C(=O)OC)(c3cc4c(cc3OC)N(C=O)[C@H]3[C@@](O)(C(=O)OC)[C@H](OC(C)=O)[C@]5(CC)C=CCN6CC[C@]43[C@@H]65)C2)C1 [vincristine] + CO[C@H]1C[C@@H]2CC[C@@H](C)[C@@](O)(O2)C(=O)C(=O)N2CCCC[C@H]2C(=O)O[C@H]([C@H](C)C[C@@H]2CC[C@@H](OCCO)[C@H](OC)C2)CC(=O)[C@H](C)/C=C(\C)[C@@H](O)[C@@H](OC)C(=O)[C@H](C)C[C@H](C)/C=C/C=C/C=C/1C [everolimus] (first compound 0.0001 µM, partner dose 0.02 µM)	122%
COc1cc([C@@H]2c3cc4c(cc3[C@@H](O[C@@H]3O[C@@H]5CO[C@@H](C)O[C@H]5[C@H](O)[C@H]3O)[C@H]3COC(=O)[C@H]23)OCO4)cc(OC)c1O [etoposide] + CC1(C)CCC(c2ccc(Cl)cc2)=C(CN2CCN(c3ccc(C(=O)NS(=O)(=O)c4ccc(N[C@H](CCN5CCOCC5)CSc5ccccc5)c(S(=O)(=O)C(F)(F)F)c4)cc3)CC2)C1 [ABT263] (first compound 0.02 µM, partner dose 0.4 µM)	222%
CC[C@]1(O)C[C@H]2CN(CCc3c([nH]c4ccccc34)[C@@](C(=O)OC)(c3cc4c(cc3OC)N(C=O)[C@H]3[C@@](O)(C(=O)OC)[C@H](OC(C)=O)[C@]5(CC)C=CCN6CC[C@]43[C@@H]65)C2)C1 [vincristine] + NC(=O)c1ccc(N(C(N)=O)c2c(F)cccc2F)nc1-c1ccc(F)cc1F [VX702] (first compound 0.0001 µM, partner dose 0.4 µM)	145%
Cc1ccc(Nc2nccc(N(C)c3ccc4c(C)n(C)nc4c3)n2)cc1S(N)(=O)=O [Pazopanib] + C=CCNC1=C2C[C@@H](C)C[C@H](OC)[C@H](O)[C@@H](C)/C=C(\C)[C@H](OC(N)=O)[C@@H](OC)/C=C\C=C(/C)C(=O)NC(=CC1=O)C2=O [Tanespimycin] (first compound 0.4 µM, partner dose 0.002 µM)	123%
O=C(Nc1cc(C(F)(F)F)cc(C(F)(F)F)c1)c1cc(Cl)ccc1O + Cn1c(=O)n(-c2ccc(C(C)(C)C#N)cc2)c2c3cc(-c4cnc5ccccc5c4)ccc3ncc21 [NVP-BEZ235] (first compound 0.016 µM, partner dose 0.004 µM)	89.6%
Cc1cn(-c2cc(NC(=O)c3ccc(C)c(Nc4nccc(-c5cccnc5)n4)c3)cc(C(F)(F)F)c2)cn1 [nilotinib] + Cc1nc(Nc2ncc(C(=O)Nc3c(C)cccc3Cl)s2)cc(N2CCN(CCO)CC2)n1 [dasatanib] (first compound 0.2 µM, partner dose 0.004 µM)	53.7%
Cc1cc(Nc2cc(N3CCN(C)CC3)nc(Sc3ccc(NC(=O)C4CC4)cc3)n2)n[nH]1 [Tozasertib] + O=C(O)c1ccc2c(c1)nc(Nc1cccc(Cl)c1)c1ccncc12 [CX4945] (first compound 0.006 µM, partner dose 0.4 µM)	84.6%
O=C(Nc1cc(C(F)(F)F)cc(C(F)(F)F)c1)c1cc(Cl)ccc1O + CO[C@H]1C[C@@H]2CC[C@@H](C)[C@@](O)(O2)C(=O)C(=O)N2CCCC[C@H]2C(=O)O[C@H]([C@H](C)C[C@@H]2CC[C@@H](OCCO)[C@H](OC)C2)CC(=O)[C@H](C)/C=C(\C)[C@@H](O)[C@@H](OC)C(=O)[C@H](C)C[C@H](C)/C=C/C=C/C=C/1C [everolimus] (first compound 0.016 µM, partner dose 0.02 µM)	190%
Cc1cc(Nc2cc(N3CCN(C)CC3)nc(Sc3ccc(NC(=O)C4CC4)cc3)n2)n[nH]1 [Tozasertib] + Nc1cccc2c1CN(C1CCC(=O)NC1=O)C2=O [lenalidomide] (first compound 0.006 µM, partner dose 1 µM)	123%
O=C(Nc1cc(C(F)(F)F)cc(C(F)(F)F)c1)c1cc(Cl)ccc1O + Cn1nnc2c(C(N)=O)ncn2c1=O [temozolomide] (first compound 0.016 µM, partner dose 2 µM)	76.5%
COc1cc([C@@H]2c3cc4c(cc3[C@@H](O[C@@H]3O[C@@H]5CO[C@@H](C)O[C@H]5[C@H](O)[C@H]3O)[C@H]3COC(=O)[C@H]23)OCO4)cc(OC)c1O [etoposide] + Cn1sc(=O)n(Cc2ccccc2)c1=O [TDZD-8] (first compound 0.02 µM, partner dose 0.4 µM)	220%
Cc1cn(-c2cc(NC(=O)c3ccc(C)c(Nc4nccc(-c5cccnc5)n4)c3)cc(C(F)(F)F)c2)cn1 [nilotinib] + Nc1nc(F)nc2c1ncn2[C@@H]1O[C@H](CO)[C@@H](O)[C@@H]1O [fludarabine] (first compound 0.2 µM, partner dose 0.2 µM)	116%
O=c1[nH]nc(Sc2ncc([N+](=O)[O-])s2)n1-c1ccc2c(c1)OCCO2 + CO[C@H]1C[C@@H]2CC[C@@H](C)[C@@](O)(O2)C(=O)C(=O)N2CCCC[C@H]2C(=O)O[C@H]([C@H](C)C[C@@H]2CC[C@@H](OCCO)[C@H](OC)C2)CC(=O)[C@H](C)/C=C(\C)[C@@H](O)[C@@H](OC)C(=O)[C@H](C)C[C@H](C)/C=C/C=C/C=C/1C [everolimus] (first compound 0.2 µM, partner dose 0.02 µM)	275%
O=c1[nH]nc(Sc2ncc([N+](=O)[O-])s2)n1-c1ccc2c(c1)OCCO2 + Cn1nnc2c(C(N)=O)ncn2c1=O [temozolomide] (first compound 0.2 µM, partner dose 2 µM)	67%
Cc1cc(Nc2cc(N3CCN(C)CC3)nc(Sc3ccc(NC(=O)C4CC4)cc3)n2)n[nH]1 [Tozasertib] + C[C@@H](Oc1cc(-c2cnn(C3CCNCC3)c2)cnc1N)c1c(Cl)ccc(F)c1Cl [Crizotinib] (first compound 0.006 µM, partner dose 0.2 µM)	147%
O=c1[nH]nc(Sc2ncc([N+](=O)[O-])s2)n1-c1ccc2c(c1)OCCO2 + NC(=O)c1ccc(N(C(N)=O)c2c(F)cccc2F)nc1-c1ccc(F)cc1F [VX702] (first compound 0.2 µM, partner dose 0.4 µM)	83.7%
Cc1ccc(Nc2nccc(N(C)c3ccc4c(C)n(C)nc4c3)n2)cc1S(N)(=O)=O [Pazopanib] + CO[C@H]1C[C@@H]2CC[C@@H](C)[C@@](O)(O2)C(=O)C(=O)N2CCCC[C@H]2C(=O)O[C@H]([C@H](C)C[C@@H]2CC[C@@H](OCCO)[C@H](OC)C2)CC(=O)[C@H](C)/C=C(\C)[C@@H](O)[C@@H](OC)C(=O)[C@H](C)C[C@H](C)/C=C/C=C/C=C/1C [everolimus] (first compound 0.4 µM, partner dose 0.02 µM)	230%
Cc1ccc(Nc2nccc(N(C)c3ccc4c(C)n(C)nc4c3)n2)cc1S(N)(=O)=O [Pazopanib] + CCCS(=O)(=O)Nc1ccc(F)c(C(=O)c2c[nH]c3ncc(Cl)cc23)c1F [PLX4720] (first compound 0.4 µM, partner dose 0.08 µM)	78.9%
N#CC[C@H](C1CCCC1)n1cc(-c2ncnc3[nH]ccc23)cn1 [ruxolitinib] + OCc1c[nH]c2ccccc12 [Indole-3-carbinol] (first compound 1 µM, partner dose 0.8 µM)	96.8%
Cc1ccc(Nc2nccc(N(C)c3ccc4c(C)n(C)nc4c3)n2)cc1S(N)(=O)=O [Pazopanib] + OCc1c[nH]c2ccccc12 [Indole-3-carbinol] (first compound 0.4 µM, partner dose 0.8 µM)	148%
COc1cc([C@@H]2c3cc4c(cc3[C@@H](O[C@@H]3O[C@@H]5CO[C@@H](C)O[C@H]5[C@H](O)[C@H]3O)[C@H]3COC(=O)[C@H]23)OCO4)cc(OC)c1O [etoposide] + C[C@]1(O)C[C@@H](c2nc(-c3ccc4ccc(-c5ccccc5)nc4c3)c3c(N)nccn32)C1 [OSI906] (first compound 0.02 µM, partner dose 0.4 µM)	101%

An excerpt from further up:
Compound	cleaved PARP positive nuclei fraction
Cc1cn(-c2cc(NC(=O)c3ccc(C)c(Nc4nccc(-c5cccnc5)n4)c3)cc(C(F)(F)F)c2)cn1 [nilotinib] + Nc1nc(F)nc2c1ncn2[C@@H]1O[C@H](CO)[C@@H](O)[C@@H]1O [fludarabine] (first compound 0.2 µM, partner dose 0.2 µM)	116%
O=c1[nH]nc(Sc2ncc([N+](=O)[O-])s2)n1-c1ccc2c(c1)OCCO2 + CO[C@H]1C[C@@H]2CC[C@@H](C)[C@@](O)(O2)C(=O)C(=O)N2CCCC[C@H]2C(=O)O[C@H]([C@H](C)C[C@@H]2CC[C@@H](OCCO)[C@H](OC)C2)CC(=O)[C@H](C)/C=C(\C)[C@@H](O)[C@@H](OC)C(=O)[C@H](C)C[C@H](C)/C=C/C=C/C=C/1C [everolimus] (first compound 0.2 µM, partner dose 0.02 µM)	275%
